The list is a part of this screen's results and no random one: it gathers tests that were run many times, whatever their T/C, doses with no T/C, and many T/C values between a quarter and a half above the control. Other doses and runs of a compound stand elsewhere. T/C: endpoint of the treated group in % of that of the vehicle group. Some doses have a count of surviving animals in place of a T/C: the source files T/C as zero there, which appears to mark a toxic dose or a test without result, not a measured value. Some doses without a T/C left all or most animals alive at the check, yet need not have been tolerated: survival well below the control is almost never listed, so the zero probably covers shortened survival too. Counts of survivors are from the toxicity check (mostly the fifth day) where no day follows; animals may have died later. Schedule codes are those of the source, read here as Q, the interval in days (D) or hours (H), X, the number of doses. Where survival is the endpoint, this PubChem deposit counts one and a half times the control or more as active, and values a quarter to a half above the control carry no call in these data; other NCI protocols may use other cut-offs. Some doses were run more than once; the values are given in rising order. Some T/C values carry the count of animals alive at the toxicity check (mostly the fifth day); where none is given, no animal had died by that day.

The test system of this assay is BDF1 mice, P388 leukemia ip, median survival T/C. The assay can be described thus: NCI In Vivo Anticancer Drug Screen. Data for tumor model P388 Leukemia (intraperitoneal) in B6D2F1 (BDF1) mice. The note with it: T/C endpoint: median survival time, higher T/C = longer survival. Summed up: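 Vehicle-dosed animals serve as the reference; survival of compound-dosed, tumour-implanted mice is divided by it.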

Setting [1] is: dose: 100.0 mg/kg/injection, schedule: Q01DX009 (ip), vehicle: saline with Tween-80.
[2] abbreviates: dose: 200.0 mg/kg/injection, schedule: Q01DX009 (ip), vehicle: saline with Tween-80.
Setting [3] is: dose: 400.0 mg/kg/injection, schedule: Q01DX009 (ip), vehicle: saline with Tween-80.
[4] abbreviates: dose: 100.0 mg/kg/injection, schedule: Q01DX009 (ip), vehicle: Klucel (hydroxypropylcellulose) (HPC).
Where [5] appears, read: dose: 100.0 mg/kg/injection, schedule: Q04DX003 (ip), vehicle: saline with Tween-80.
The mark [6] stands for this setting: dose: 200.0 mg/kg/injection, schedule: Q04DX003 (ip), vehicle: saline with Tween-80.
The mark [7] stands for this setting: dose: 50.0 mg/kg/injection, schedule: Q01DX009 (ip), vehicle: saline with Tween-80.
Where [8] appears, read: dose: 400.0 mg/kg/injection, schedule: Q04DX003 (ip), vehicle: saline with Tween-80.
The mark [9] stands for this setting: dose: 300.0 mg/kg/injection, schedule: Q01DX009 (ip), vehicle: saline with Tween-80.
Setting [10] is: dose: 400.0 mg/kg/injection, schedule: Q01DX009 (ip), vehicle: saline.
Setting [11] is: dose: 400.0 mg/kg/injection, schedule: Q04DX003 (ip), vehicle: saline.
Setting [12] is: dose: 200.0 mg/kg/injection, schedule: Q01DX009 (ip), vehicle: saline.

Take `CCC(=O)N(C)[C@@H](C)C(=O)O[C@H]1CC(=O)N(C)c2cc(cc(OC)c2Cl)C/C(C)=C/C=C[C@@H](OC)[C@@]2(O)C[C@H](OC(=O)N2)[C@@H](C)[C@@H]2O[C@@]12C`: the T/C was 137 % of control (dose: 0.1 micrograms/kg/injection, schedule: Q01DX009 (ip), vehicle: saline); 137 % of control (dose: 0.4 micrograms/kg/injection, schedule: Q01DX009 (ip), vehicle: saline); 145 % of control (dose: 0.8 micrograms/kg/injection, schedule: Q01DX009 (ip), vehicle: saline); 125 % of control (dose: 6.2 micrograms/kg/injection, schedule: Q01DX009 (ip), vehicle: saline). Besides, the survivor count (dose: 25.0 micrograms/kg/injection, schedule: Q01DX009 (ip), vehicle: saline) is recorded as 6 of 6 and the survivor count (dose: 50.0 micrograms/kg/injection, schedule: Q01DX009 (ip), vehicle: saline) was 0 of 6.

Regarding `O=C(NNc1ccc(F)cc1)C12CC3CC(CC(C3)C1)C2`, the survivor count is 6 of 6 under setting [1] and 5 of 6 under setting [2].

Turning to `O=S(=O)(c1ccccc1)N1CN2CCN(C2)C1`, the T/C under setting [2] is 136 % of control and the T/C under setting [3] was 142 % of control.

As for `COC(=O)C1C(O)C(C)C(O)C(C)/C=C\C=C(C)C(=O)Nc2c(C)c(OC(C)=O)c3c(c2O)C(=O)C(C)=C2OCOC(=C23)C(C)=CC(C)(O)C(O)C(C)C1O` (centres undefined), the survivor count under setting [4] is on record as 3 of 6 and the survivor count (dose: 300.0 mg/kg/injection, schedule: Q01DX009 (ip), vehicle: Klucel (hydroxypropylcellulose) (HPC)) is reported as 2 of 6. In addition, the T/C (dose: 150.0 mg/kg/injection, schedule: Q01DX009 (ip), vehicle: Klucel (hydroxypropylcellulose) (HPC)) is 126 % of control.

Turning to `CCOC(=O)c1cc(/C=C/c2ccccc2)[nH]c(=O)c1C#N`, the survivor count is, setting by setting: under setting [4], 6 of 6; (dose: 400.0 mg/kg/injection, schedule: Q01DX009 (ip), vehicle: Klucel (hydroxypropylcellulose) (HPC)) 6 of 6.

In the case of `C[n+]1c(-c2ccccc2)c2cc(N)ccc2c2ccc(N)cc21`, the survivor count under setting [5] was 0 of 6 and the survivor count under setting [6] is 0 of 6.

Turning to `COc1ccc(NC(=O)Oc2ccc3c(C)cc(=O)oc3c2)c(OC)c1`, the T/C under setting [1] was 145 % of control.

As for `Clc1c(Cl)c2c(Cl)c(Cl)c1C[P+](c1ccccc1)(c1ccccc1)CC[P+](c1ccccc1)(c1ccccc1)Cc1c(Cl)c(Cl)c(c(Cl)c1Cl)C[P+](c1ccccc1)(c1ccccc1)CC[P+](c1ccccc1)(c1ccccc1)C2`, the survivor count is on record as 0 of 6 under setting [7], 0 of 6 under setting [1] and 0 of 6 under setting [2].

With `NC(=O)/C=C/C(=O)c1c(Cl)cccc1Cl`, the T/C (dose: 3.13 mg/kg/injection, schedule: Q01DX009 (ip), vehicle: saline with Tween-80) is 145 % of control. For the same compound, the survivor count by setting is: under setting [7], 5 of 6; under setting [1], 0 of 6; under setting [2], 0 of 6.

Take `CC(=O)Nc1ccn(C2OC(COC(C)=O)C(OC(C)=O)C2OC(C)=O)c(=O)n1` (centres undefined): the T/C by setting is: under setting [6], 127 % of control; under setting [8], 127 % of control; (dose: 600.0 mg/kg/injection, schedule: Q04DX003 (ip), vehicle: saline with Tween-80) 127 and 137 % of control.

`CCCCCCCCCCCCCCSCCSCCSCCCCCCCCCCCCCC`: for the setting “dose: 50.0 mg/kg/injection, schedule: Q01DX001 (ip), vehicle: saline sonified”, the survivor count is on record as 6 of 6.

Consider `COc1cc2c(c(OC)c1OC)-c1ccc(OC)c(=O)cc1[C@@H](NC=O)CC2`, for which the T/C (dose: 0.05 mg/kg/injection, schedule: Q01DX010 (ip), vehicle: saline) was 131 % of control; the T/C (dose: 0.1 mg/kg/injection, schedule: Q01DX010 (ip), vehicle: saline) is 140 % of control; the T/C (dose: 0.19 mg/kg/injection, schedule: Q01DX010 (ip), vehicle: saline) was 136 % of control; the T/C (dose: 1.5 mg/kg/injection, schedule: Q01DX010 (ip), vehicle: saline) was 141 % of control; the T/C (dose: 45.0 micrograms/kg/injection, schedule: Q01DX009 (ip), vehicle: Klucel (hydroxypropylcellulose) (HPC)) is 130 % of control. Also, the survivor count was 5 of 6 (dose: 1.5 mg/kg/injection, schedule: Q01DX009 (ip), vehicle: Klucel (hydroxypropylcellulose) (HPC)); 2 of 6 (dose: 3.0 mg/kg/injection, schedule: Q01DX009 (ip), vehicle: Klucel (hydroxypropylcellulose) (HPC)); 2 of 6 (dose: 3.0 mg/kg/injection, schedule: Q01DX010 (ip), vehicle: saline); 0 of 6 (dose: 6.0 mg/kg/injection, schedule: Q01DX010 (ip), vehicle: saline).

In the case of `Brc1ccc(C[N+]23CN4CN(CN(C4)C2)C3)cc1`, the T/C is, setting by setting: under setting [2], 125 and 130 % of control; under setting [9], 137 % of control. In addition, the survivor count was 0 of 6 under setting [9], 1 of 6 under setting [10] and 0 of 6 under setting [11].

Take `C=C(Cl)c1c(C)cc(C)c(CC#N)c1C`: the survivor count is 4 of 6 (dose: 50.0 mg/kg/injection, schedule: Q04DX003 (ip), vehicle: DMSO); 4 of 6 (dose: 100.0 mg/kg/injection, schedule: Q04DX003 (ip), vehicle: DMSO); 3 of 6 (dose: 200.0 mg/kg/injection, schedule: Q04DX003 (ip), vehicle: DMSO).

`COc1ccc(OC)c2c1C(=O)CC2C` (centres undefined): the survivor count under setting [12] is reported as 6 of 6 and the survivor count under setting [10] is on record as 5 of 6.

In the case of `CN1CCN(CCCN2c3ccccc3Sc3ccc(Cl)cc32)CC1`, the T/C (dose: 25.0 mg/kg/injection, schedule: Q01DX009 (ip), vehicle: saline) is 136 % of control. In addition, the survivor count (dose: 50.0 mg/kg/injection, schedule: Q01DX009 (ip), vehicle: saline) is 4 of 6.

In the case of `COc1ccc(CC2Cc3cc(OC)c(OC)cc3C=N2)cc1OC` (centres undefined), the survivor count by setting is: under setting [12], 3 of 6; under setting [10], 0 of 6; under setting [11], 4 of 6.

Take `CC(=O)OC(=O)C(Cc1ccccc1)NC(=O)C(N)CCCN=C(N)N` (centres undefined): the survivor count (dose: 200.0 mg/kg/injection, schedule: Q01DX005 (ip), vehicle: saline with Tween-80) was 0 of 6.

On to `CC(C)NCC(O)COc1ccc(OCc2ccccc2)c(OCc2ccccc2)c1` (centres undefined), for which the survivor count under setting [1] was 5 of 6.

Consider `C1CCNCC1.COc1ccccc1C(=O)[CH-]C(=O)C(F)(F)F.COc1ccccc1C(=O)[CH-]C(=O)C(F)(F)F.COc1ccccc1C(=O)[CH-]C(=O)C(F)(F)F.COc1ccccc1C(=O)[CH-]C(=O)C(F)(F)F.[Eu+3]`, for which the T/C under setting [12] was 126 % of control.

For `O=NN(CCF)C(=O)Oc1cc(Cl)c(Cl)cc1Cl`, the T/C reads like this: (dose: 12.5 mg/kg/injection, schedule: Q01DX001 (ip), vehicle: saline with Tween-80) 139 % of control; (dose: 25.0 mg/kg/injection, schedule: Q01DX001 (ip), vehicle: saline with Tween-80) 147 % of control. Moreover, the survivor count runs as follows: (dose: 50.0 mg/kg/injection, schedule: Q01DX001 (ip), vehicle: saline with Tween-80) 3 of 6; (dose: 100.0 mg/kg/injection, schedule: Q01DX001 (ip), vehicle: saline with Tween-80) 0 of 6.

As to `CCCCCCCCCCCCCCCCNC(C)c1ccccc1` (centres undefined), the survivor count (dose: 50.0 mg/kg/injection, schedule: Q04DX003 (ip), vehicle: saline with Tween-80) is 5 of 6; the survivor count under setting [5] is 5 of 6; the survivor count under setting [6] was 2 of 6; the survivor count under setting [8] is given as 0 of 6.

On to `c1cc2n(n1)CCN2`, for which the T/C is 130 % of control under setting [6] and 140 % of control [5 of 6 alive] under setting [8]. Under “dose: 400.0 mg/kg/injection, schedule: Q01DX009 (ip), vehicle: water”, the survivor count is listed as 3 of 6.

Consider `CSc1ccc(C(O)CNC(C)C)cc1C` (centres undefined), for which, under setting [12], the survivor count is listed as 1 of 6.

Regarding `COc1ccc(C2=CCCCC2)cc1`, the survivor count under setting [3] is recorded as 6 of 6.

Values taken from PubChem BioAssay AID328 (DTP/NCI, 2004).
